Test results published in the supplement of paper PMC10735217.
Structures can show the parent of a compound that is named as a salt. The list shows a part of the results. Single values are uncertain here, since repeats match poorly.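 Human kidney-derived cells stably carry a construct in which eight TEAD-binding elements drive luciferase, measured by luminescence in a drug-repurposing library screen. A hit is any compound whose signal exceeds the plate mean by more than five robust Z scores.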

Test system: HEK293A TEAD-LUC reporter
Assay: TEAD-luciferase reporter activity (YAP activation), robust Z score vs plate; higher = stronger YAP/TEAD activation
Conditions: 24 h

| SMILES | TEAD-luciferase reporter activity (compound concentration: 200 nM) | TEAD-luciferase reporter activity (compound concentration: 2 uM) | TEAD-luciferase reporter activity (compound concentration: 10 uM) |
| --- | --- | --- | --- |
| CN(C(=O)CN(CCO)CCO)c1ccc(Cl)cc1C(=O)c1ccccc1Cl | inactive: -0.913 | inactive: -0.873 | inactive: 1.34 |
| CC(C)(C)NCC(O)c1ccc(O)c(O)c1 (centres undefined) [Colterol] | inactive: -0.247 | inactive: 0.0213 | inactive: -0.193 |
| O=C(NCc1cccnc1)c1cnc(Nc2cccc(Cl)c2)nc1C(F)(F)F | inactive: 0.0351 | inactive: -0.224 | inactive: 0.294 |
| N#Cc1cncc(N2CC3CCC(C2)N3CC(F)(F)F)c1 | inactive: -0.937 | – | inactive: 1.87 |
| CN(C(=O)CNC1CC1)c1ccc(Cl)cc1C(=O)c1ccccc1Cl [ciprazafone] | inactive: -0.608 | inactive: -0.633 | inactive: -1.68 |
| NCCc1ccccc1Sc1c[nH]c2cc(F)ccc12 | inactive: -0.598 | inactive: -0.856 | inactive: -0.532 |
| Oc1ccc(Cl)cc1Cc1ccccc1 | inactive: -1.14 | inactive: -2.22 | inactive: 0.0333 |
| C[N+]12CCC(CC1)C(OC(=O)C(O)(c1ccccc1)c1ccccc1)C2 (centres undefined) [Clidinium bromide] | inactive: -1.29 | inactive: 1.11 | inactive: -1.01 |
| COC(CN1CCN(CC(O)C(OC)c2ccccc2)CC1)c1ccccc1 (centres undefined) | inactive: -0.616 | inactive: -0.943 | inactive: 1.34 |
| C=CCC1CN(C)CCC1(OC(=O)CC)c1ccccc1 (centres undefined) | inactive: -0.974 | inactive: -1.96 | inactive: 0.283 |
| c1ccc(C2CCNCC2)cc1 | inactive: -1.72 | inactive: 1.79 | inactive: -1.35 |
| C[C@]12CCC(=O)C(=O)C1CC[C@@H]1[C@@H]2CC[C@]2(C)C(=O)CC[C@@H]12 (some centres undefined) [formestane] | inactive: 0.588 | inactive: -0.483 | inactive: 1.44 |
| C#CCN(C)[C@@H](C)Cc1ccc(F)cc1 [parafluoro-selegiline] | inactive: -0.353 | inactive: -0.329 | inactive: 2.05 |
| CN1C(=O)[C@@H](NC(=O)c2cc3ccccc3[nH]2)N=C(c2ccccc2)c2ccccc21 [Devazepide] | inactive: 0.134 | inactive: -1.01 | inactive: -1.28 |
| CCCC(C)(C)c1ccc2c(c1)OC(C)(C)[C@@H]1CC=C(C)C[C@@H]21 | inactive: -1.28 | inactive: -1.15 | inactive: 2.19 |
| C=CCC1(C2C=CCC2)C(=O)NC(=O)NC1=O (centres undefined) | inactive: -1.15 | inactive: 0.953 | inactive: -0.415 |
| S=C=NCCc1ccccc1 [Phenethyl isothiocyanate] | inactive: 1.45 | inactive: -0.514 | inactive: -1.89 |
| CC(C)[C@]12O[C@H]1[C@@H]1O[C@]13[C@]1(O[C@H]1C[C@H]1C4=C(CC[C@@]13C)C(=O)OC4)[C@@H]2OC(=O)CCC(=O)O [Omtriptolide] | inactive: -0.635 | inactive: -2.4 | inactive: -0.83 |
| C[C@@H](Cc1ccsc1)NC(=O)NC[C@H](Cc1ccc(O)cc1)N(C)C | inactive: -0.215 | inactive: -1.71 | inactive: -0.319 |
| CC(C)C[C@@H]1NC(=O)[C@H](CCCCN)NC(=O)[C@H](Cc2ccc(O)cc2)NC(=O)CNC(=O)[C@@H]2CSSC[C@H](NC1=O)C(=O)N[C@@H](Cc1cnc[nH]1)C(=O)N1C[C@H](O)C[C@H]1C(=O)N[C@H](C(=O)O)CSSC[C@H](NC(=O)[C@@H](NC(=O)CNC(=O)[C@@H]1CCC(=O)N1)C(C)C)C(=O)N2 | inactive: 0.0816 | inactive: 0.472 | active: 5.78 |

| SMILES | TEAD-luciferase reporter activity (compound concentration: 200 nM) | TEAD-luciferase reporter activity (compound concentration: 2 uM) | TEAD-luciferase reporter activity (compound concentration: 10 uM) |
| --- | --- | --- | --- |
| CCN(CC)CCOC(=O)C(C)(c1ccccc1)c1ccccc1 | inactive: -1.09 | inactive: -0.809 | inactive: 4.8 |
| C=CCC1(CC(C)C)C(=O)NC(=S)NC1=O | inactive: -1.61 | inactive: 0.186 | inactive: 0.48 |
| NCCCNCCSP(=O)(O)O [amifostine] | inactive: 0.237 | – | inactive: -0.276 |
| CS(=O)CC[C@@H](NC(=O)[C@@H](N)Cc1ccc(O)cc1)C(=O)NCC(=O)N[C@@H](Cc1ccc([N+](=O)[O-])cc1)C(=O)N1CCC[C@H]1C(N)=O (some centres undefined) [nifalatide] | inactive: 0.652 | inactive: -0.8 | inactive: 0.0169 |
| Cc1ncc(OC[C@@]2(c3cccc(F)c3)C[C@H]2C(=O)Nc2ccc(F)cn2)c(C)n1 [Lemborexant] | inactive: -1.8 | inactive: -1.25 | inactive: 3.18 |
| CN(C(=O)CNC(=O)[C@@H](N)CCCCN)c1ccc(Cl)cc1C(=O)c1ccccc1 | inactive: -1.25 | inactive: 1.14 | inactive: 1.62 |
| CCC1(CC)C(=O)CCNC1=O | inactive: -0.93 | inactive: -0.915 | inactive: -0.599 |
| NCCS[As](SCCN)c1ccc(Nc2nc(N)nc(N)n2)cc1 | inactive: -0.435 | inactive: 1.39 | inactive: 1.18 |
| CCCCNC(=O)n1c(NC(=O)OC)nc2ccccc21 | inactive: -0.0459 | inactive: -0.909 | inactive: -0.354 |
| CCCN(CCC)C(=O)Cc1c(-c2ccc(Cl)cc2)nc2ccc(Cl)cn12 [alpidem] | inactive: 0.852 | inactive: -2.17 | inactive: 2.87 |
| CC1COC(O)(c2cc(F)cc(F)c2)C(C)N1 (centres undefined) | inactive: -1.45 | inactive: -1.83 | inactive: 0.66 |
| Oc1ccc([C@H]2CC[C@]3(CC2)OOC2(O3)C3CC4CC(C3)CC2C4)cc1 (some centres undefined) | inactive: 2.69 | – | inactive: -1.24 |
| CCCN[C@@H]1Cc2cccc3[nH]c(=O)n(c23)C1 | inactive: 0.141 | inactive: -0.323 | inactive: 0.267 |
| Cc1cc(C)c(CC2=NCCN2)c(C)c1 | inactive: -1.2 | inactive: -0.292 | inactive: -1.71 |
| O=C(O)C1CCN1C12CC3CC(CC(C3)C1)C2 (centres undefined) | inactive: 2.48 | inactive: -1.32 | inactive: 4.12 |
| COc1ccc2c3c1O[C@H]1[C@@H](O)CC[C@H]4[C@@H](C2)N(C)CC[C@@]341 [Dihydrocodeine Bitartrate] | inactive: 1.42 | – | active: 9.99 |
| CC(=O)NC1CCC(O[N+](=O)[O-])CC1 (centres undefined) | inactive: 1.05 | inactive: 0.658 | inactive: -0.844 |
| CC(C)CN1C(=O)C(NC(=O)Nc2cccc(-c3nnn[nH]3)c2)N=C(c2ccccc2)c2ccccc21 (centres undefined) | inactive: -0.721 | inactive: -1.57 | active: 8.17 |
| CC(=O)O[C@H]1CC[C@@]2(C)C(=CC[C@H]3[C@@H]4CC[C@H](O)[C@@]4(C)CC[C@@H]32)C1 | inactive: -0.936 | inactive: -1.43 | inactive: 2.81 |
| O=C(C1CCCN1C(=O)c1ccc(C(F)(F)F)cc1)N1CCC(N2Cc3ccccc3C2=O)CC1 (centres undefined) | inactive: -2.82 | – | inactive: -1.13 |

Two consecutive records out of the list so far:

| SMILES | TEAD-luciferase reporter activity (compound concentration: 200 nM) | TEAD-luciferase reporter activity (compound concentration: 2 uM) | TEAD-luciferase reporter activity (compound concentration: 10 uM) |
| --- | --- | --- | --- |
| NCCCNCCSP(=O)(O)O [amifostine] | inactive: 0.237 | – | inactive: -0.276 |
| CS(=O)CC[C@@H](NC(=O)[C@@H](N)Cc1ccc(O)cc1)C(=O)NCC(=O)N[C@@H](Cc1ccc([N+](=O)[O-])cc1)C(=O)N1CCC[C@H]1C(N)=O (some centres undefined) [nifalatide] | inactive: 0.652 | inactive: -0.8 | inactive: 0.0169 |

Further entries follow.

| SMILES | TEAD-luciferase reporter activity (compound concentration: 200 nM) | TEAD-luciferase reporter activity (compound concentration: 2 uM) | TEAD-luciferase reporter activity (compound concentration: 10 uM) |
| --- | --- | --- | --- |
| CC12C=CC(=O)C=C1CC[C@@H]1[C@@H]2CCC2(C)C(=O)CC[C@@H]12 (some centres undefined) | inactive: -0.358 | – | inactive: -0.186 |
| Cc1nnc2n1-c1sc(C#CCn3c(=O)c4ccccc4c4ccccc43)cc1C(c1ccccc1Cl)=NC2 | inactive: -0.219 | inactive: -0.211 | inactive: -0.489 |
| CNC(=O)Oc1ccccc1C(=O)Nc1ccccc1 | inactive: -0.663 | inactive: -1.57 | inactive: -1.88 |
| c1cncc(C2=N[C@H](CN3CCCCC3)CON2)c1 | inactive: -1.48 | inactive: -0.16 | inactive: -0.635 |
| CC(=O)[C@H]1CC[C@H]2[C@@H]3CC[C@@H]4C[C@H](O)CC[C@]4(C)[C@H]3CC[C@]12C | inactive: -0.264 | inactive: -1.07 | inactive: 0.0688 |
| CC1(C)COC(=O)C1O (centres undefined) | inactive: 0.379 | inactive: 1.1 | inactive: -1.03 |
| CCCCCCC(C)(C)c1cc(O)c2c(c1)OC(C)(C)[C@@H]1CCC(=O)C[C@@H]21 [Nabilone] | inactive: -0.254 | – | inactive: 2.66 |
| CCCCCCC(=O)O[C@H]1CC[C@H]2[C@@H]3CC[C@H]4CC(=O)C=C(C)[C@]4(C)[C@H]3CC[C@]12C | inactive: 0.0288 | inactive: -0.358 | inactive: 4.44 |
| COc1ccccc1N1CCN(CCc2ccc3c(c2)sc(=O)n3C)CC1 | active: 5.48 | inactive: 4.18 | inactive: 1.97 |
| Nc1ncc([N+](=O)[O-])s1 | inactive: 0.704 | inactive: -1.65 | inactive: 0.596 |
| CN1CCC(O)(c2ccc(F)cc2)C(C(=O)c2ccc(F)cc2)C1 (centres undefined) [flazalone] | inactive: -0.809 | inactive: -1.34 | inactive: -1.84 |
| CN(C)CCc1c[nH]c2cccc(OP(=O)(O)O)c12 | inactive: -0.664 | inactive: -0.0994 | inactive: 0.691 |
| CCOC(=O)c1ncn2c1CN(C)C(=O)c1c(I)cccc1-2 | inactive: 2.12 | inactive: 0.0851 | inactive: -0.542 |
| Cc1nn(C)c2c1C(c1cccc(Cl)c1)=NCCN2 [zometapine] | inactive: -1.89 | inactive: -2.25 | inactive: 2.72 |
| CCc1ccc(C2CCNCC2)cc1 [enefexine] | inactive: 0.558 | inactive: 0.536 | inactive: 1.97 |
| CN1Cc2c(-c3noc(C4CC4)n3)ncn2-c2ccccc2C1=O | inactive: -1.48 | inactive: -0.451 | inactive: -1.05 |
| C=CCN1CC[C@]23c4c5ccc(O)c4O[C@H]2C(=O)CC[C@@]3(O)[C@H]1C5 [naloxone HCl] | – | inactive: -0.863 | – |
| C=CCN1CC[C@]23c4c5ccc(O)c4O[C@H]2C(=O)CC[C@@]3(O)[C@H]1C5 | inactive: -0.704 | – | inactive: 2.79 |
